No constants are given. Whether binding was seen depends on the method and setting. Binding seen in cells or lysates may run through a third protein. Binding can be weak; no strength is given.
Target: dHLH-Bmal1, Bmal1 mutant lacking the basic helix-loop-helix DNA binding domain (UniProt Q9WTL8)
Assay: co-IP; cells cross-linked with 1% formaldehyde for 10 min; nuclear extract in high salt nuclear extraction buffer (10 mM HEPES pH 8.0, 0.2 M NaCl); BMAL1 antibody or normal rabbit IgG, protein A beads; immunoblot

Amino acid sequences for entries named in this document (tags omitted). A change or cut given only in a name is not applied to a line headed by its entry.
UniProt Q9WTL8: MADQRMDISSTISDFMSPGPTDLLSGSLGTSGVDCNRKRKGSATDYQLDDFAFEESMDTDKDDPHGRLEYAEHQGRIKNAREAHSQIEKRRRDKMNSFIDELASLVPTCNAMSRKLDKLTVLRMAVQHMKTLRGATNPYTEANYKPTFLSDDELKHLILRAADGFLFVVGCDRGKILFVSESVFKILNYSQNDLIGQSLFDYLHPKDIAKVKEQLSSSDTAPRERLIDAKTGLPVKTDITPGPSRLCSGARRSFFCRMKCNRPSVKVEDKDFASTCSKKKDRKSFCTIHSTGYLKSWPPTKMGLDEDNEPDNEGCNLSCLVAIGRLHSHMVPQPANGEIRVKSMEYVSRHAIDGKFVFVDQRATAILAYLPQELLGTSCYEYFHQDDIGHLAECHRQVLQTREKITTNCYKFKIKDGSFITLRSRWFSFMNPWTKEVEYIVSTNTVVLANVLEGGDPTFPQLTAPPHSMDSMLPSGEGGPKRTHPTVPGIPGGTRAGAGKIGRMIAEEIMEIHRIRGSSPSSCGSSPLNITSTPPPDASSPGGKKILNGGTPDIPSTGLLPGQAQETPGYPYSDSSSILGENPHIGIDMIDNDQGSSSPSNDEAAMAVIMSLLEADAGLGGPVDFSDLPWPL
UniProt P57780: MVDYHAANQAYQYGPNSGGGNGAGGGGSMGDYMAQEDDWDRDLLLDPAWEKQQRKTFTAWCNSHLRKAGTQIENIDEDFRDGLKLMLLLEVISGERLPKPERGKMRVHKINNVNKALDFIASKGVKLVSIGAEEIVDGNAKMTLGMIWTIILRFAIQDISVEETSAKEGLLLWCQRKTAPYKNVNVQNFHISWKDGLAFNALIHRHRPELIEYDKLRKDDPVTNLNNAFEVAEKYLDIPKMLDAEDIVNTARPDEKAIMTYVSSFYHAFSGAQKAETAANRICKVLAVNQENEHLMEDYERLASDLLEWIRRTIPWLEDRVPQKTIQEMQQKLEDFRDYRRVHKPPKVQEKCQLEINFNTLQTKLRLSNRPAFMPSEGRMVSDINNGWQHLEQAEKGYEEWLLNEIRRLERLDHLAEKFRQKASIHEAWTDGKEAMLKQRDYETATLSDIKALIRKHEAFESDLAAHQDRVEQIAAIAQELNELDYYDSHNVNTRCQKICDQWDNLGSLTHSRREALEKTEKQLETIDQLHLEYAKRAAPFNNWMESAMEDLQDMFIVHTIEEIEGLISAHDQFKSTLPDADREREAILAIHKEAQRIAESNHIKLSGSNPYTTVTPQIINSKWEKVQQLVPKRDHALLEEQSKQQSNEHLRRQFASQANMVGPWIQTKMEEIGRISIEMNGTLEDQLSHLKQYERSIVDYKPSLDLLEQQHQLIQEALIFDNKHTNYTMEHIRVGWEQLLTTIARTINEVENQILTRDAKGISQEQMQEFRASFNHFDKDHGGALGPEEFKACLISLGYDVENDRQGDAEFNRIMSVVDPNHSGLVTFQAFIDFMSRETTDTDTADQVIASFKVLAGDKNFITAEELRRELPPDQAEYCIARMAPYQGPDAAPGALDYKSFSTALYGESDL
UniProt Q61188: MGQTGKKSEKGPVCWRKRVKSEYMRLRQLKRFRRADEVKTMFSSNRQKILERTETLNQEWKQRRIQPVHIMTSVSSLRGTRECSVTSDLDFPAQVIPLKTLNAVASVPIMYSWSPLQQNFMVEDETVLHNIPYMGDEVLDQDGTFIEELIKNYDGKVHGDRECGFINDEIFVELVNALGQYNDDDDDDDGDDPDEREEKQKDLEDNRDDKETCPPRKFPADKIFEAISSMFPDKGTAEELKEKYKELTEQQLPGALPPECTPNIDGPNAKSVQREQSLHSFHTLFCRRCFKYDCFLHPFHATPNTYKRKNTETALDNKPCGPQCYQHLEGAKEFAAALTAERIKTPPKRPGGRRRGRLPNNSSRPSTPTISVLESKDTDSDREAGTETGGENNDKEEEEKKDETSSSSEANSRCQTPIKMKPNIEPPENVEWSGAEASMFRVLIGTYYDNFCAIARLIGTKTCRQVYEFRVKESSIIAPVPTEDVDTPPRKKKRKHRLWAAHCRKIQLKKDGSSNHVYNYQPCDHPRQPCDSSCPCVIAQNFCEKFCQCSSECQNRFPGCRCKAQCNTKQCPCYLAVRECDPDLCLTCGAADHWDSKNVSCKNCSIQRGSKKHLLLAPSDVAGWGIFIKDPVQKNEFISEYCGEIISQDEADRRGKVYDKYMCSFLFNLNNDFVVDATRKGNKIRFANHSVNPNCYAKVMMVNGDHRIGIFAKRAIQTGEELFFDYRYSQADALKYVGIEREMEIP

Row | binding | Substance
1 | binds | Actinin 4 (Actn4), endogenous (from UniProt P57780 1-912)
2 | no binding | Ezh2, endogenous (from UniProt Q61188 1-746)
